The values that follow are results of earlier work, collected in patent publication US8637702B2, “Derivatives of N-hydroxybenzamide for treating HIV infections” (Italfarmaco S.p.A., priority 2009, dated 2014).

SMILES strings stand for the structures. pEC50: −log10 of the molar value.

The subject of the data set is HIV-1 gene expression in the ACH-2 cell line. As to conditions: read-out: EC50 for induction of HIV-1 gene expression, from WO 2008/097654; cited from earlier work.

On to `O=C(CCCCCCC(=O)Nc1ccccc1)NO` [SAHA], for which the pEC50 was 6.20.
